Some compounds share one wording; it may come from a single statement.
assay: Ninhydrin test for detection of Pd0-mediated deprotected histamine; conditions: 100 μM, 1 mg Pd0 resin in PBS, 37° C., 24 h; compared to Pd-resin+DMSO

Q: With C#CCOc1ccc(COC(=O)NCCc2c[nH]cn2)cc1 [pPOBC-Hist, 4-proparglyoxybenzylcarbamoyl Histamine] as the molecule, how does the “ninhydrin test (free primary amine, O.D. 570 nm)” value read?
A: primary amines were detected

Q: For C#CCOc1ccccc1COC(=O)NCCc1c[nH]cn1 [oPOBC-Hist, 2-proparglyoxybenzylcarbamoyl Histamine], which “ninhydrin test (free primary amine, O.D. 570 nm)” value is on record?
A: primary amines were detected

Q: For Cl.Cl.NCCc1c[nH]cn1 [Histamine, 2-(4-Imidazolyl)ethylamine dihydrochloride, reference compound], which “ninhydrin test (free primary amine, O.D. 570 nm)” value is on record?
A: primary amines were detected

Reference: patent US20200289554A1, “BIOORTHOGONAL COMPOUNDS COMPRISING A PROPARGYL GROUP FOR TREATING CANCER” (THE UNIVERSITY COURT OF THE UNIVERSITY OF EDINBURGH, priority 2016, published 2020)
